Values of other authors as cited in patent US20110251396A1, “Enantiomeric compositions of cicletanine, alone and in combination with other agents, for the treatment of disease” (Gilead Sciences, Inc., priority 2003, published 2011).
Some of these results come from one statement about several compounds together.

Conditions: in vivo

SMILES | plasma half-life [min]
CCOc1cc(CC(=O)N[C@@H](CC(C)C)c2ccccc2N2CCCCC2)ccc1C(=O)O [Repaglinide] | 50 to 60
CC(C)[C@H]1CC[C@H](C(=O)N[C@H](Cc2ccccc2)C(=O)O)CC1 [nateglinide] | 50 to 60
